Reference: patent US20100310665A1, “BACTERIOSTATIC OR BACTERIOCIDAL COMPOSITIONS AND METHODS” (Revalesio Corporation, priority 2007, published 2010)
For at least one compound, name, drawing or mass did not settle the structure.

Tested on: ovalbumin sensitization
Experiment: Brown Norway rat ovalbumin sensitization model with Budesonide
Type: in vivo, Brown Norway rats

In the case of `CCCC1O[C@@H]2C[C@H]3[C@@H]4CCC5=CC(=O)C=C[C@]5(C)[C@H]4[C@@H](O)C[C@]3(C)[C@]2(C(=O)CO)O1` (some centres unmarked) [Budesonide], the blood eotaxin levels (Budesonide 750 μg/kg, 6 and 24 hours post challenge) was “reduced the blood eotaxin levels”, the “total eosinophil count relative to normal saline alone” value (challenged animals, Budesonide 750 μg/Kg where used) was “reduced the total eosinophil count” and the Eosinophil % (challenged animals, Budesonide 750 μg/kg where used) was “did not have a significant effect on Eosinophil % count”. The Penh values (immediately after the challenge, Budesonide 500 and 750 μg/kg) was “failed to significantly affect the Penh values” and the tidal volume (immediately after the challenge, Budesonide 500 and 750 μg/kg where used) was “no change in tidal volumes”.
